Source: PubChem BioAssay AID1080 (Emory University Molecular Libraries Screening Center, 2008).

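A cell line overexpressing EP4 prostanoid receptors, stimulated with a low (about EC15) PGE2 dose; cAMP read by HTRF FRET after a short room-temperature incubation.
Compounds were tested at 20 µM final. A low (about EC15) PGE2 dose was present.
Percent cAMP induction as a fraction of the 1 µM PGE2 response, averaged over three replicates; a higher value means more cAMP.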

Values are in %.
Common to all entries: measured here: EP4 receptor counter-screen.
Part of the compounds only, not a random draw; the main read-out is not listed here.

O=c1[nH]ncc2c3ccccc3n(Cc3cccc(Cl)c3)c12 [percent of 1 uM PGE2 response; plus low (about EC15) PGE2 agonist] gave cAMP induction 3.213%. Result for Cc1cc(C)n(-c2nc(C)nc3c2cnn3-c2ccccc2)n1 [percent of 1 uM PGE2 response; plus low (about EC15) PGE2 agonist] was cAMP induction 7.793%. Result for COc1ccc(C2=Nn3c(nnc3-c3ccccc3)SC2)cc1OC [percent of 1 uM PGE2 response; plus low (about EC15) PGE2 agonist] was cAMP induction -8.297%. Cc1ccc(S(=O)(=O)N(CC(=O)N=Nc2c(O)[nH]c3ccccc23)c2ccc(C)c(C)c2)cc1 [percent of 1 uM PGE2 response; plus low (about EC15) PGE2 agonist] gave cAMP induction -5.927%. Result for COc1ccc(OCC(=O)NC(=S)Nc2ccc3c4c(cccc24)CC3)cc1 [percent of 1 uM PGE2 response; plus low (about EC15) PGE2 agonist] was cAMP induction 61.59%.

CC(=O)N(Cc1cccs1)Cc1cc2ccc(C)c(C)c2nc1Cl [percent of 1 uM PGE2 response; plus low (about EC15) PGE2 agonist] read cAMP induction -11.29%. For O=C(Nc1ccccc1N1CCCCC1)c1cnccn1 [percent of 1 uM PGE2 response; plus low (about EC15) PGE2 agonist] the result was cAMP induction 15.5%. With CCN(CC)CCN1C(=O)c2cccc3cc(N)cc(c23)C1=O [percent of 1 uM PGE2 response; plus low (about EC15) PGE2 agonist] the assay gave cAMP induction -3.413%. Cc1ccccc1CN(C)CC(=O)Nc1ccccc1Oc1ccccc1 [percent of 1 uM PGE2 response; plus low (about EC15) PGE2 agonist] gave cAMP induction -1.143%. Result for O=C(CSc1ncnc2c1oc1ccccc12)Nc1cccc(F)c1 [percent of 1 uM PGE2 response; plus low (about EC15) PGE2 agonist] was cAMP induction 37.93%.

For COc1ccc(C2CC(c3cccs3)=NN2C(=O)c2ccc(Br)o2)cc1 (stereo not shown) [percent of 1 uM PGE2 response; plus low (about EC15) PGE2 agonist] the result was cAMP induction 5.373%. For CC(Cc1ccccc1)NC(=O)C1(c2ccccc2)CCOCC1 (stereo not shown) [percent of 1 uM PGE2 response; plus low (about EC15) PGE2 agonist] the result was cAMP induction -1.923%. CCCc1cc(=O)n2[nH]c(NCc3cccs3)nc2n1 [percent of 1 uM PGE2 response; plus low (about EC15) PGE2 agonist] gave cAMP induction 7.177%. For O=C(CSc1ncnc2c1oc1ccccc12)Nc1ccccc1C(F)(F)F [percent of 1 uM PGE2 response; plus low (about EC15) PGE2 agonist] the result was cAMP induction 73.49%. CCN(CCO)c1ncnc2c1sc1nc(C(C)C)c3c(c12)CC(C)(C)OC3 [percent of 1 uM PGE2 response; plus low (about EC15) PGE2 agonist] read cAMP induction -6.377%.

CCCCn1c(-c2csc3c2CCCC3)n[nH]c1=S [percent of 1 uM PGE2 response; plus low (about EC15) PGE2 agonist] read cAMP induction -8.7%. For Cc1cc(C)c(S(=O)(=O)O)c(C)n1 [percent of 1 uM PGE2 response; plus low (about EC15) PGE2 agonist] the result was cAMP induction -2.423%. For CCOC(=O)c1c(NC(=O)CSc2nnnn2CC)sc(C)c1C [percent of 1 uM PGE2 response; plus low (about EC15) PGE2 agonist] the result was cAMP induction -14.21%. For Cc1cc(C)c(C#N)c(Oc2ccccc2Br)n1 [percent of 1 uM PGE2 response; plus low (about EC15) PGE2 agonist] the result was cAMP induction -9.87%. Result for O=C1CCCc2ccccc2N1Cc1cccc(Cl)c1 [percent of 1 uM PGE2 response; plus low (about EC15) PGE2 agonist] was cAMP induction -14.66%.

COc1ccccc1CNC(=O)C1(c2ccc(Cl)cc2)CC1 [percent of 1 uM PGE2 response; plus low (about EC15) PGE2 agonist] read cAMP induction 4.18%.

The last 2 entries again:

* O=C1CCCc2ccccc2N1Cc1cccc(Cl)c1 [percent of 1 uM PGE2 response; plus low (about EC15) PGE2 agonist] : cAMP induction -14.66%
* COc1ccccc1CNC(=O)C1(c2ccc(Cl)cc2)CC1 [percent of 1 uM PGE2 response; plus low (about EC15) PGE2 agonist] : cAMP induction 4.18%